Reference: article PMC8727931
No constants are given. Whether binding was seen depends on the method and setting. Some entries that bind do so weakly or less than the wild type.

By UniProt entry, the sequences of proteins in these tests, tags left out. Where a name states a change or a piece, a line headed by the entry shows the natural chain unless it says otherwise. Chains listed by the source or under a name are the forms on record and can include a tag or linker. Residues count along the entry.
GST-FAM134B (Q9H6L5, residues 451-476): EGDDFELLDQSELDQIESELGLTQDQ
GST-FAM134B L463Q (Q9H6L5, form named): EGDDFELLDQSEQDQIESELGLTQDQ
GST-FAM134B I466Q (Q9H6L5, form named): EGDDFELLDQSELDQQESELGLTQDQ
UniProt Q9DCD6: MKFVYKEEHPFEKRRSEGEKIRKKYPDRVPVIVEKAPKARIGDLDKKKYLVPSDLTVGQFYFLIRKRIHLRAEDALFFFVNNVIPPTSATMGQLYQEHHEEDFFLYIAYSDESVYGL

Assays:
[1] = biological target: FAM134B LIR L463Q (SEC-MALS construct) (UniProt Q9H6L5); assay: SEC-MALS; Superose 12 10/300GL column; 100 mM NaCl, 50 mM Tris/HCl pH 7.5, 1 mM DTT, 1 mM EDTA; proteins mixed at a 1:1 molar ratio; both purified
GST-FAM134B [2] = biological target: GST-FAM134B (UniProt Q9H6L5); assay: pull-down; competition: 4 uM GST-tagged FAM134B incubated with 4.8 uM His-tagged GABARAP (or its mutants) and 4.8 uM MBP-tagged LC3A (or its mutants) together, 1 h at 4 °C; GSH-Sepharose 4B beads in PBS; Coomassie blue staining; both purified
GST-FAM134B L463Q = GST-FAM134B L463Q (UniProt Q9H6L5); assay: pull-down; 1 uM GST-tagged FAM134B or mutants incubated with purified His-tagged GABARAP or MBP-tagged LC3A (or its mutants) 1 h at 4 °C; GSH-Sepharose 4B beads in PBS; Coomassie blue staining; both purified
GST-FAM134B [3] = biological target: GST-FAM134B (UniProt Q9H6L5); assay: as above
GST-FAM134B I466Q = GST-FAM134B I466Q (UniProt Q9H6L5); assay: as above

Row | binding (GST-FAM134B [2]) | binding (GST-FAM134B [3]) | Substance | further results
1 |  |  | GABARAP (recombinant, for ITC, SEC and crystallization) (from UniProt Q9DCD6 1-117) | binding [1]: binds
2 | binds | binds | His-tagged GABARAP (from UniProt Q9DCD6 1-117) | binding (GST-FAM134B L463Q): binds; binding (GST-FAM134B I466Q): binds
3 | binds |  | His-tagged GABARAP R28K (from UniProt Q9DCD6 1-117) | 
4 | binds |  | His-tagged GABARAP Y25H (from UniProt Q9DCD6 1-117) | 
5 | binds | binds | MBP-tagged LC3A H27Y (from UniProt Q91VR7 1-121) | 
6 |  | binds | MBP-tagged LC3A H57D (from UniProt Q91VR7 1-121) | 
7 | binds | binds | MBP-tagged LC3A K30R (from UniProt Q91VR7 1-121) | 
8 |  | binds | MBP-tagged LC3A K65F (from UniProt Q91VR7 1-121) | 
